According to US10449261B2, “Compositions targeting radiation-induced molecules and methods of use thereof” (Washington University, priority 2014, dated 2019):
No constants are given. Whether binding was seen depends on the method and setting. Some entries that bind do so weakly or less than the wild type.

The chains behind the UniProt entries cited, without tags or fusion partners. Residues count along the entry.
UniProt P11021, residues 19-654: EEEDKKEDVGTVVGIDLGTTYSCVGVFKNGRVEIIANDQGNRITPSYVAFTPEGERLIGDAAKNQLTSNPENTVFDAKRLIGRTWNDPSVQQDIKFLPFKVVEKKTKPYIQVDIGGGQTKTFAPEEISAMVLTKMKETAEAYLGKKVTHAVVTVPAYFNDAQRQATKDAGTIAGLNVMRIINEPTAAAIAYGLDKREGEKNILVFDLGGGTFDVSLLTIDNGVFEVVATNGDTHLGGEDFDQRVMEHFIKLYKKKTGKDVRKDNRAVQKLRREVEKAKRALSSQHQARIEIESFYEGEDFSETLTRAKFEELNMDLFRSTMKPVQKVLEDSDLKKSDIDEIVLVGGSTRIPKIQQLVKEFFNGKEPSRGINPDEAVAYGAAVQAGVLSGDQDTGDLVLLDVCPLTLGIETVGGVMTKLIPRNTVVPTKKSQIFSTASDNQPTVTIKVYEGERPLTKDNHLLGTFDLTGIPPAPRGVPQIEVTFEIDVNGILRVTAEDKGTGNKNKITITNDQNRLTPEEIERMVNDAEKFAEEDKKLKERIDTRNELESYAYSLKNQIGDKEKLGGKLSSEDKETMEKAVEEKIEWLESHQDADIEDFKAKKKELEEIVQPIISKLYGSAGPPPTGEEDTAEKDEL

What was measured:
[1] = target: T1, recombinant eukaryotic GRP78 protein (Prospec, USA) (UniProt P11021 19-654, limits assumed); experiment: SPR (BIAcore 2000): GRP78 amine-coupled on a CM4 chip, peptide as analyte in HBS-EP at 25 C, reference-subtracted
T1 construct: Immobilised by amine coupling on a CM4 chip; also called Glucose-regulated protein 78 kDa; Glucose Regulatory Protein-78

[2] = target: T1, recombinant eukaryotic GRP78 protein …; experiment: SPR, GRP78 immobilised on a CM4 chip

binding [1]: binds | binding [2]: binds
B1: GIRLRG (SEQ ID NO:1) peptide (peptide)
peptide: GIRLRG
notes: Unconjugated synthetic hexapeptide, used as the analyte in SPR and as the ligand in the molecular model; also called lead peptide
